{
  "sequences": {"note": "Protein sequences, listed by entry. Tags and fused reporters are not part of them. Lines headed by an entry give the natural chain unless they say otherwise; changes in a name come on top.", "UniProt Q60949": "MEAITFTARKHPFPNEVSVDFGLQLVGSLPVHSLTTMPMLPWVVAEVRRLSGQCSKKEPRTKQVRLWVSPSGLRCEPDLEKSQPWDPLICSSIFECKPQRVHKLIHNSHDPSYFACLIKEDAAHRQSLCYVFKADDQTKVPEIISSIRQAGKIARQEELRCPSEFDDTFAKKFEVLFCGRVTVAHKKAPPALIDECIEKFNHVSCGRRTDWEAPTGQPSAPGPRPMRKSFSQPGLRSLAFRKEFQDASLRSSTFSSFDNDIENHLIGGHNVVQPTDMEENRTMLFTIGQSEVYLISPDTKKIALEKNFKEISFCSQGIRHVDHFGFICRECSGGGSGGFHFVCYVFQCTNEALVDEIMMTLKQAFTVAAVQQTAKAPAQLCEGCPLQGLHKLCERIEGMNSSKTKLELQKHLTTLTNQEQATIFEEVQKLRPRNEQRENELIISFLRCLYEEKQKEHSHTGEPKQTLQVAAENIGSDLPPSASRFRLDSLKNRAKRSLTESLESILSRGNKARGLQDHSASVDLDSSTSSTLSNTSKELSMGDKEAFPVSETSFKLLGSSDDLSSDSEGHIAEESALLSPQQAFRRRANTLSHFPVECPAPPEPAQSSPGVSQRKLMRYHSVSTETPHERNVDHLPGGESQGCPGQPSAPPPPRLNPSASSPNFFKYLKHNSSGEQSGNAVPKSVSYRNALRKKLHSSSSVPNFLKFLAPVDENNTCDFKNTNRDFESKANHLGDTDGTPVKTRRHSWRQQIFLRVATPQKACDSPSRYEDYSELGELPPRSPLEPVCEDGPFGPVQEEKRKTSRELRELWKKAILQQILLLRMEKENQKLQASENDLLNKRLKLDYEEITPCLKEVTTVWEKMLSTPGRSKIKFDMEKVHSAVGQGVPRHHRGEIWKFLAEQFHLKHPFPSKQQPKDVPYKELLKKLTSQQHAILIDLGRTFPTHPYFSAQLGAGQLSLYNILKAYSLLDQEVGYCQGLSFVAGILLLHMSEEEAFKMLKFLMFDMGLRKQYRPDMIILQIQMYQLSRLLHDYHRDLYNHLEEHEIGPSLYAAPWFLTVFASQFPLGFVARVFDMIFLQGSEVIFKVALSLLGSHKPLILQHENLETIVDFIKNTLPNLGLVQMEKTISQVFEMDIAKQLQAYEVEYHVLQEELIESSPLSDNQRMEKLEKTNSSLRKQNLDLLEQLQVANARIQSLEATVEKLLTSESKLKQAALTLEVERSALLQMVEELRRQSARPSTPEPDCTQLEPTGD", "UniProt Q5HZG4, whole entry": "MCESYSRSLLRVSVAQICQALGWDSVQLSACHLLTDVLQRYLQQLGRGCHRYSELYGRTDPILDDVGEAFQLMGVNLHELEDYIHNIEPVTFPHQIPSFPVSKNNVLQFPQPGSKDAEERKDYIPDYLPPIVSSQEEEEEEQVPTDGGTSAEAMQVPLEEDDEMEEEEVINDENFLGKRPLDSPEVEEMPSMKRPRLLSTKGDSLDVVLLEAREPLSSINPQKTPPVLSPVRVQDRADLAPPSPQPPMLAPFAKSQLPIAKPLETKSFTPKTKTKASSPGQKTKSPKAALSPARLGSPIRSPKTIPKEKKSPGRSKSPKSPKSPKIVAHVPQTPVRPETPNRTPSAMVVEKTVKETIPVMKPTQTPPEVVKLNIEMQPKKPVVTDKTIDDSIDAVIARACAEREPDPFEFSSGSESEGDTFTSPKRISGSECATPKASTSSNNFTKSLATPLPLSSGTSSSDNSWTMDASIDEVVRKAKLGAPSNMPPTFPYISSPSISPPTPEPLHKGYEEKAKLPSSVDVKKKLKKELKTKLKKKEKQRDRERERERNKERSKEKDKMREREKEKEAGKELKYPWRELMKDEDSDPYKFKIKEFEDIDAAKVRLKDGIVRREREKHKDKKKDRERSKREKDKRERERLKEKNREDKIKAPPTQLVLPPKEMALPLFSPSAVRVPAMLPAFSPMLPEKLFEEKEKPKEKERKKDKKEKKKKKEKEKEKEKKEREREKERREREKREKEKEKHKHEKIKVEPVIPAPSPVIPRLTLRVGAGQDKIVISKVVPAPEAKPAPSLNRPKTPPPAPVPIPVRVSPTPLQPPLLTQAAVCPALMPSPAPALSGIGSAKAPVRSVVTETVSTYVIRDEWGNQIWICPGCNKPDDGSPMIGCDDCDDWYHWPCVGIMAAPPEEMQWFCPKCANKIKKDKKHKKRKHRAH", "UniProt Q61207": "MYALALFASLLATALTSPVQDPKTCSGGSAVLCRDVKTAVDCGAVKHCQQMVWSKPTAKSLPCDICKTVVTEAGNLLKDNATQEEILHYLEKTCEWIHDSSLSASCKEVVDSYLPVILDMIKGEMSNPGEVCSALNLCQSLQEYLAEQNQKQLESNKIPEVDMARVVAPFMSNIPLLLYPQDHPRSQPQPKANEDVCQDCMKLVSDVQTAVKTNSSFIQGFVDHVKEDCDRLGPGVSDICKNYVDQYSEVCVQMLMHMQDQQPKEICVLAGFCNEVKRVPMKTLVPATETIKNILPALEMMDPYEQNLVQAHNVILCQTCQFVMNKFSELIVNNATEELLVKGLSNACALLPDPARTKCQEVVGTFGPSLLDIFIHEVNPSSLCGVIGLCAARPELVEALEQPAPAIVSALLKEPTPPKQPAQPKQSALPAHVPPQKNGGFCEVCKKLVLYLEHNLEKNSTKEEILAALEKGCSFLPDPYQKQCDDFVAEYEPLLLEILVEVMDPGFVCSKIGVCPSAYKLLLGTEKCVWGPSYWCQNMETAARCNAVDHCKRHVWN", "UniProt Q61315, whole entry": "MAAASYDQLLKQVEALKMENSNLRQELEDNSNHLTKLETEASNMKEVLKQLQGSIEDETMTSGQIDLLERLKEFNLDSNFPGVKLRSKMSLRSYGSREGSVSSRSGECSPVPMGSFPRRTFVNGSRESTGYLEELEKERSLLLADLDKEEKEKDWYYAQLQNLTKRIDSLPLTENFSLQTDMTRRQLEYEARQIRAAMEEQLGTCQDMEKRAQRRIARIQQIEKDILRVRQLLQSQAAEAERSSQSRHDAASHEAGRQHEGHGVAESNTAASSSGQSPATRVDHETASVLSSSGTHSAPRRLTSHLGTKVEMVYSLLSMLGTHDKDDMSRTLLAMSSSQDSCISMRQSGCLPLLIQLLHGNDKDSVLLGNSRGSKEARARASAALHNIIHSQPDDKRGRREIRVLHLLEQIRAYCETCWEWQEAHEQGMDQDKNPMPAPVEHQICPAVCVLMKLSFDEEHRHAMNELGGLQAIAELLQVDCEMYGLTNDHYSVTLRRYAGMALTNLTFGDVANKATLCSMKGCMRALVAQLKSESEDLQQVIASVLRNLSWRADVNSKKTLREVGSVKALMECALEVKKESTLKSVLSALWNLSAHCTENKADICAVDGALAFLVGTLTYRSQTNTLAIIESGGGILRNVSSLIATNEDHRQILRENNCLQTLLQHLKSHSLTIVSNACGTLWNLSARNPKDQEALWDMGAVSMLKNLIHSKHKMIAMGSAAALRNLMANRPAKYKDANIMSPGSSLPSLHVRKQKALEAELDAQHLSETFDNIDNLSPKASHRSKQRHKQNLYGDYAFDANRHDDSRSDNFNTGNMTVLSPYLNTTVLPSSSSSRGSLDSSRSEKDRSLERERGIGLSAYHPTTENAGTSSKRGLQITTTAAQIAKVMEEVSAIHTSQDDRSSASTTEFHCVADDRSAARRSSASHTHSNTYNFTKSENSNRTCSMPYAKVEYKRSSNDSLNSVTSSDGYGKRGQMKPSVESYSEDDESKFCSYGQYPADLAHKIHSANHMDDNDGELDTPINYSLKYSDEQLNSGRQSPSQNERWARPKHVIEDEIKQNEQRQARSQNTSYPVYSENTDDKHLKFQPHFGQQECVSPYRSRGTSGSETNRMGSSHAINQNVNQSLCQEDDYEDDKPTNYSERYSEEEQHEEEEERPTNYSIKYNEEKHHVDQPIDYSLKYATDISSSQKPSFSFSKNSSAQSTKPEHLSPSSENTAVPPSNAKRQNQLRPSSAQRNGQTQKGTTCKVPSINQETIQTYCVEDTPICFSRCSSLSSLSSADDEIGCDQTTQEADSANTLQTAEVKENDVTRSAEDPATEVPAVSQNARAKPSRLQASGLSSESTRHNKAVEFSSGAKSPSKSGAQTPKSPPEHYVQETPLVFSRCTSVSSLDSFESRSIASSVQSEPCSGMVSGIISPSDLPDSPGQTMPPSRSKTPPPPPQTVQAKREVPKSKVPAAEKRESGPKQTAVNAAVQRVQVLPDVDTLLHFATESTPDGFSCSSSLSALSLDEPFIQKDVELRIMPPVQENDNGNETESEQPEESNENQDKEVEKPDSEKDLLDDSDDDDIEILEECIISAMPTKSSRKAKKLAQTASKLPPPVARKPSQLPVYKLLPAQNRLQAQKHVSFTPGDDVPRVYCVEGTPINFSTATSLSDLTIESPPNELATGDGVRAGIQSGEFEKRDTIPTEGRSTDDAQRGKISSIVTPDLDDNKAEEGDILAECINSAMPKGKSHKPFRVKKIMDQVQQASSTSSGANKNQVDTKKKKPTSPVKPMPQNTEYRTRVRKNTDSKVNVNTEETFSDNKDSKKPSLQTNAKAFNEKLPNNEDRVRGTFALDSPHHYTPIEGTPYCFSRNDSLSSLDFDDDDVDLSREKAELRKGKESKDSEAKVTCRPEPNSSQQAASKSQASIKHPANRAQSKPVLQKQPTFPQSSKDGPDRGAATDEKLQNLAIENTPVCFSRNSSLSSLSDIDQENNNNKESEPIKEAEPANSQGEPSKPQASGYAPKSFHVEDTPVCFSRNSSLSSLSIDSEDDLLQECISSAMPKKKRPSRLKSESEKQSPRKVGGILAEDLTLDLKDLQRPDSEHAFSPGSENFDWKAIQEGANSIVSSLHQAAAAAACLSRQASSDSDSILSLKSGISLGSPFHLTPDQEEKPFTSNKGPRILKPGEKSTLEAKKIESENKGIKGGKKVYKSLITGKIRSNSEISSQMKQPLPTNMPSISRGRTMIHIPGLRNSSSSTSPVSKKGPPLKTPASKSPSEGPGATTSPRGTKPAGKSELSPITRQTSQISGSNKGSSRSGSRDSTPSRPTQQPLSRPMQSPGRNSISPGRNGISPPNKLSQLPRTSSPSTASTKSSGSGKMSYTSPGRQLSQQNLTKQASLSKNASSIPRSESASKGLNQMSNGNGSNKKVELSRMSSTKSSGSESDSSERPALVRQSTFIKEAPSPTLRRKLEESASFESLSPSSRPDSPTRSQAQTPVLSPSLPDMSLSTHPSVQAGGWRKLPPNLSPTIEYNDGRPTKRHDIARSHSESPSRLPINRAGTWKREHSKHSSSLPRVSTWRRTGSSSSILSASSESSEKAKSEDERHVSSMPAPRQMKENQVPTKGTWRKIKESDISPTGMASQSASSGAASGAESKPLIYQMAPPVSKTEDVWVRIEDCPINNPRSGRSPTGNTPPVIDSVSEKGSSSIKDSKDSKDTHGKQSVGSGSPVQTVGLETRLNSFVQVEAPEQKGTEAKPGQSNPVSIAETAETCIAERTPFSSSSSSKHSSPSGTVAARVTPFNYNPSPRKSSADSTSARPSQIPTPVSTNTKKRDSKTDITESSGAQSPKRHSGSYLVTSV"},
  "source": "the supplement of paper PMC12819154",
  "about": "“High-throughput peptide-centric local stability assay extends protein–ligand identification to membrane proteins, tissues and bacteria” (Nature Structural & Molecular Biology, 2025)",
  "note": "The other results are listed elsewhere or left out. Most values lie at the level of the controls, where differences are scatter.",
  "data": [
    {"compound": "CN[C@@H]1C[C@H]2O[C@@](C)([C@@H]1OC)n1c3ccccc3c3c4c(c5c6ccccc6n2c5c31)C(=O)NC4 [staurosporine]", "assay": "log2 fold change of tryptic peptide abundance, ligand vs vehicle (limited proteolysis) (log2 ratio); higher = more trypsin-susceptible (destabilized)", "details": "ligand concentration: 20 uM; sample: mouse liver crude lysate; replicate design: treated separately", "values": [
      {"target": "UniProt Q60949 (peptide sequence: ELSMGDKEAFPVSETSFK, peptide start residue: 538)", "log2 fold change": -0.296},
      {"target": "UniProt Q5HZG4 (peptide sequence: TPSAMVVEK, peptide start residue: 343)", "log2 fold change": -0.307},
      {"target": "UniProt Q61207 (peptide sequence: QLESNKIPEVDMAR, peptide start residue: 152)", "log2 fold change": -0.0578},
      {"target": "UniProt Q61315 (peptide sequence: HHVDQPIDYSLK, peptide start residue: 1170)", "log2 fold change": -0.324}
    ]}
  ]
}
